From PMC6141542
No constants are given. Whether binding was seen depends on the method and setting. Binding seen in cells or lysates may run through a third protein. Some entries that bind do so weakly or less than the wild type. For some of these results: Sequences can lack the tags named with a protein. Each block holds one molecule with its values, some of them ahead of it.

The chains behind the UniProt entries cited, without tags or fusion partners.
UniProt P68400: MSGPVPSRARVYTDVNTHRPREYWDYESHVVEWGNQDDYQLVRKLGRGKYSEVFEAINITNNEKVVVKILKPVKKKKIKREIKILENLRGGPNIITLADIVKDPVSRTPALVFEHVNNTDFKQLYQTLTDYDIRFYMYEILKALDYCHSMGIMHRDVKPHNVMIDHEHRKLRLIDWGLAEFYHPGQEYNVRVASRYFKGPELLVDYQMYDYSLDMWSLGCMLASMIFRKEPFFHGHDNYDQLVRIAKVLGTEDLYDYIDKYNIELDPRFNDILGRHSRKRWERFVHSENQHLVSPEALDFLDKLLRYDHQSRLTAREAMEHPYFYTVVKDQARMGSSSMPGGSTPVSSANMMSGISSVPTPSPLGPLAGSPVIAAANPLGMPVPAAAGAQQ
UniProt P12813: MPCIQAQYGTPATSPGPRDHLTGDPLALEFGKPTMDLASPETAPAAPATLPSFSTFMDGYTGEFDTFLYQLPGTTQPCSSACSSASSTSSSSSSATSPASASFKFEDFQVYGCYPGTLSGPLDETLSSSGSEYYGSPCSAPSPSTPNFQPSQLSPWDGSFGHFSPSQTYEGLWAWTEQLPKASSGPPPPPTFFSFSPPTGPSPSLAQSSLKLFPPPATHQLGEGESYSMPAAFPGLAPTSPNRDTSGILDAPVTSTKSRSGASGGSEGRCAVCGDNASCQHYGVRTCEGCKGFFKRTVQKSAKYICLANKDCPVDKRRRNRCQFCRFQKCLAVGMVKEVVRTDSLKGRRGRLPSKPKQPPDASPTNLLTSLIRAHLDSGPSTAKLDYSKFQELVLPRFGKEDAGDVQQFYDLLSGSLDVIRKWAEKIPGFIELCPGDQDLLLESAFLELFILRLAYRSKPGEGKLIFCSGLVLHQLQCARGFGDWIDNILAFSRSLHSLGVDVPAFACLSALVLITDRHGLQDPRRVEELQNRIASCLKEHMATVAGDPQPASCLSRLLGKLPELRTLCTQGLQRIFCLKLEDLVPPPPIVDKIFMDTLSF

How the values were obtained:
Experiment in all cases: co-IP; HeLa cells transfected with plasmids, lysates 36 h after transfection in RIPA buffer (20 mM HEPES pH 7.5, 1% NP-40, 0.1% SDS, 0.5% deoxycholic acid, 150 mM NaCl, 10 uM NaF, protease inhibitors); antibody overnight, protein A-Sepharose 1 h; western blot
Myc-CK2α = Myc-CK2α (UniProt P68400)
[1] = molecular target: Flag-tagged Nur77 (mouse) (UniProt P12813)
Flag-Trim13 (mouse) = molecular target: T1, Flag-Trim13 (mouse) (UniProt Q9CYB0)
T1 sequence: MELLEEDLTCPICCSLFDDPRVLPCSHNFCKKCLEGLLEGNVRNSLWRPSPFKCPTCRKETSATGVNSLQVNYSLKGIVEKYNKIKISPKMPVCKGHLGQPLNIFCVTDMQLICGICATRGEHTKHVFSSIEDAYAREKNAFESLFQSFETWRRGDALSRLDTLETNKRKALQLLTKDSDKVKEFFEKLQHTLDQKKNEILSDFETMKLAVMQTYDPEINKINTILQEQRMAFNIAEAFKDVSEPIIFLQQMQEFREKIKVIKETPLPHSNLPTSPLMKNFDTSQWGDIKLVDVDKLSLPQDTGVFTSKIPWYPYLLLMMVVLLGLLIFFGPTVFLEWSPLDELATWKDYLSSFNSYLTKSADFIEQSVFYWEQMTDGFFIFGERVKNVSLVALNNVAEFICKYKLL

binding (Myc-CK2α): binds
Molecule: Flag-tagged Nur77 (from UniProt P12813 1-601)

binding [1]: binds
Molecule: Myc-CK2α (from UniProt P68400 1-391) (enzyme)

binding (Flag-Trim13 (mouse)): binds
Molecule: Nur77 (as transfected with Flag-Trim13 in Fig. 2h) (from UniProt P12813 1-601)

binding [1]: binds
B1: Trim13 (as transfected with Flag-Nur77 in Fig. 2g) (enzyme, UniProt Q9CYB0 1-407)
chain: T1 sequence
